Results reported in US9879050B2 (priority 2013, dated 2018).

Assay: general procedure: solution-phase peptide synthesis; TPTU/HOBT/DIEA; HATU/DIEA

Substance	step yield (late stage modification step)	step yield (coupling step)
(S)-3-(3,5-Difluorophenyl)-N-((6S,8aS,14aS,20S,21 S,23aS)-6,21-Dimethyl-5,8,14,19,23-Pentaoxooctadecahydro-1H,5H,14H,19H-Pyrido[2,1-I]Dipyrrolo[2,1-C:2′,1′-L][1]Oxa[4,7,10,13]Tetraazacyclohexadecin-20-Yl)-2-(3-(P-Tolyl)Ureido)Propanamide	54%	
(S)—N-((2R,6S,8aS,14aS,20S,23aS)-2,6-Dimethyl-5,8,14,19,23-Pentaoxooctadecahydro-1H,5H,14H,19H-Pyrido[2,1-I]Dipyrrolo[2,1-C:2′,1′-L][1]Oxa[4,7,10,13]Tetraazacyclohexadecin-20-Yl)-3-Phenyl-2-(3-Phenylureido)Propanamide	40%	
Tert-Butyl (S)-2-((S)-2-(((S)-1-((2S,4S)-2-((((2S,3S)-3-(((Benzyloxy)Carbonyl)Amino)-4-Oxo-4-(2-Oxo-2-Phenylethoxy)Butan-2-Yl)Oxy)Carbonyl)-4-Methylpyrrolidin-1-Yl)-1-Oxopropan-2-yl)Carbamoyl)Piperidine-1-Carbonyl)Pyrrolidine-1-Carboxylate		79%
